Earlier results as cited in patent US20040229290A1 (priority 2003, published 2004).
At least one read-out could not be matched to a standard name with certainty.

Legend:
[1] = cited from earlier work
[2] = cited from earlier work; remark: listed apart in the source

For triose phosphate isomerase [wtTIM], the “DHAP → GAP kcat/KM” value [1] is given as 300000 M⁻¹ s⁻¹ and the “kcat/KM (M^−1s^−1), second group” value [2] is given as 1e+07 M⁻¹ s⁻¹.
